# From the supplement of paper PMC8728848
# This is one part of the list.
# B1: RsaA-N-term (Caulobacter crescentus), P35828 (protein)
# chain: MAYTTAQLVTAYTNANLGKAPDAATTLTLDAYATQTQTGGLSDAAALTNTLKLVNSTTAVAIQTYQFFTGVAPSAAGLDFLVDSTTNTNDLNDAYYSKFAQENRFINFSINLATGAGAGATAFAAAYTGVSYAQTVATAYDKIIGNAVATAAGVDVAAAVAFLSRQANIDYLTAFVRANTPFTAAADIDLAVKAALIGTILNAATVSGIGGYATATAAMINDLSDGALSTDNAAGVNLFTAYPSSGVSGSTLSLTTGTDTLTGTANNDTFVAGEVAGDGSGWSHPQFEKGG
# Key:
# Assay in all cases: glycan array binding signal (z-score within array); higher = stronger binding
# Conditions in all cases: glycan notation: IUPAC condensed, linker removed
# [1] = target: GlcNAc(b1-3)Gal(b1-4)GlcNAc(b1-3)Gal(b1-4)GlcNAc(b1-2)Man(a1-3)[GlcNAc(b1-3)Gal(b1-4)GlcNAc(b1-3)Gal(b1-4)GlcNAc(b1-2)Man(a1-6)]Man(b1-4)GlcNAc(b1-4)GlcNAc
# In short: (§1)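 From the Consortium for Functional Glycomics database, 3228 arrays were curated, keeping only those whose protein sequence was available. Binding is given as a within-array Z-score averaged across arrays sharing a protein sequence and across linkers. Negative Z-scores can be read as non-binding.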
# [2] = target: GlcNAc(b1-3)Gal(b1-4)GlcNAc(b1-3)Gal(b1-4)GlcNAc(b1-2)Man(a1-3)[GlcNAc(b1-3)Gal(b1-4)GlcNAc(b1-3)Gal(b1-4)GlcNAc(b1-2)Man(a1-6)]Man(b1-4)GlcNAc(b1-4)[Fuc(a1-6)]GlcNAc
# In short: as §1
# [3] = target: GlcNAc(b1-3)Gal(b1-4)GlcNAc(b1-3)Gal(b1-4)GlcNAc(b1-2)[GlcNAc(b1-3)Gal(b1-4)GlcNAc(b1-3)Gal(b1-4)GlcNAc(b1-6)]Man(a1-6)[GlcNAc(b1-3)Gal(b1-4)GlcNAc(b1-3)Gal(b1-4)GlcNAc(b1-2)Man(a1-3)]Man(b1-4)GlcNAc(b1-4)[Fuc(a1-6)]GlcNAc
# In short: as §1
# [4] = target: GlcNAc(b1-3)Gal(b1-4)GlcNAc(b1-3)Gal(b1-4)GlcNAc(b1-3)Gal(b1-4)GlcNAc(b1-2)Man(a1-3)[GlcNAc(b1-3)Gal(b1-4)GlcNAc(b1-3)Gal(b1-4)GlcNAc(b1-3)Gal(b1-4)GlcNAc(b1-2)Man(a1-6)]Man(b1-4)GlcNAc(b1-4)GlcNAc
# In short: as §1
# [5] = target: GlcNAc(b1-3)Gal(b1-4)GlcNAc(b1-3)Gal(b1-4)GlcNAc(b1-3)Gal(b1-4)GlcNAc(b1-2)Man(a1-3)[GlcNAc(b1-3)Gal(b1-4)GlcNAc(b1-3)Gal(b1-4)GlcNAc(b1-3)Gal(b1-4)GlcNAc(b1-2)Man(a1-6)]Man(b1-4)GlcNAc(b1-4)[Fuc(a1-6)]GlcNAc
# In short: as §1
# [6] = target: GlcNAc(b1-3)Gal(b1-4)GlcNAc(b1-3)Gal(b1-4)GlcNAc(b1-3)Gal(b1-4)GlcNAc(b1-2)[GlcNAc(b1-3)Gal(b1-4)GlcNAc(b1-3)Gal(b1-4)GlcNAc(b1-3)Gal(b1-4)GlcNAc(b1-6)]Man(a1-6)[GlcNAc(b1-3)Gal(b1-4)GlcNAc(b1-3)Gal(b1-4)GlcNAc(b1-3)Gal(b1-4)GlcNAc(b1-2)Man(a1-3)]Man(b1-4)GlcNAc(b1-4)[Fuc(a1-6)]GlcNAc
# In short: as §1
# [7] = target: GlcNAc(b1-3)Gal(b1-4)GlcNAc(b1-3)Gal(b1-4)GlcNAc(b1-3)Gal(b1-4)GlcNAc(b1-3)Gal(b1-4)GlcNAc(b1-2)Man(a1-3)[GlcNAc(b1-3)Gal(b1-4)GlcNAc(b1-3)Gal(b1-4)GlcNAc(b1-3)Gal(b1-4)GlcNAc(b1-3)Gal(b1-4)GlcNAc(b1-2)Man(a1-6)]Man(b1-4)GlcNAc(b1-4)GlcNAc
# In short: as §1
# [8] = target: GlcNAc(b1-3)Gal(b1-4)GlcNAc(b1-3)Gal(b1-4)GlcNAc(b1-3)Gal(b1-4)GlcNAc(b1-3)Gal(b1-4)GlcNAc(b1-2)Man(a1-3)[GlcNAc(b1-3)Gal(b1-4)GlcNAc(b1-3)Gal(b1-4)GlcNAc(b1-3)Gal(b1-4)GlcNAc(b1-3)Gal(b1-4)GlcNAc(b1-2)Man(a1-6)]Man(b1-4)GlcNAc(b1-4)[Fuc(a1-6)]GlcNAc
# In short: as §1
# [9] = target: GlcNAc(b1-3)Gal(b1-4)GlcNAc(b1-3)Gal(b1-4)GlcNAc(b1-3)Gal(b1-4)GlcNAc(b1-3)Gal(b1-4)GlcNAc(b1-2)[GlcNAc(b1-3)Gal(b1-4)GlcNAc(b1-3)Gal(b1-4)GlcNAc(b1-3)Gal(b1-4)GlcNAc(b1-3)Gal(b1-4)GlcNAc(b1-6)]Man(a1-6)[GlcNAc(b1-3)Gal(b1-4)GlcNAc(b1-3)Gal(b1-4)GlcNAc(b1-3)Gal(b1-4)GlcNAc(b1-3)Gal(b1-4)GlcNAc(b1-2)Man(a1-3)]Man(b1-4)GlcNAc(b1-4)[Fuc(a1-6)]GlcNAc
# In short: as §1
# [10] = target: GlcNAc(b1-3)Gal(b1-4)GlcNAc(b1-3)Gal(b1-4)GlcNAc(b1-3)GalNAc
# In short: as §1
# [11] = target: GlcNAc(b1-3)Gal(b1-4)GlcNAc(b1-3)GalNAc
# In short: as §1
# [12] = target: GlcNAc(b1-3)Gal(b1-4)GlcNAc(b1-3)[GlcNAc(b1-3)Gal(b1-4)GlcNAc(b1-3)]GalNAc
# In short: as §1
# [13] = target: GlcNAc(b1-3)Gal(b1-4)GlcNAc(b1-6)[Gal(b1-3)]GalNAc
# In short: as §1
# [14] = target: GlcNAc(b1-3)Gal(b1-4)GlcNAc(b1-6)[GlcNAc(b1-3)Gal(b1-3)]GalNAc
# In short: as §1
# [15] = target: GlcNAc(b1-3)Gal(b1-4)GlcNAc(b1-6)[GlcNAc(b1-3)]Gal(b1-4)GlcNAc
# In short: as §1
# GlcNAc(b1-3)GalNAc = target: GlcNAc(b1-3)GalNAc
# In short: as §1
# GlcNAc(b1-3)Man = target: GlcNAc(b1-3)Man
# In short: as §1
# [16] = target: GlcNAc(b1-3)[GlcNAc(b1-4)][GlcNAc(b1-6)]GlcNAc
# In short: as §1
# [17] = target: GlcNAc(b1-3)[GlcNAc(b1-6)]Gal(b1-4)GlcNAc
# In short: as §1
# [18] = target: GlcNAc(b1-3)[GlcNAc(b1-6)]GalNAc
# In short: as §1
# [19] = target: GlcNAc(b1-4)Gal(b1-4)GlcNAc
# In short: as §1
# GlcNAc(b1-4)GlcNAc = target: GlcNAc(b1-4)GlcNAc
# In short: as §1
# [20] = target: GlcNAc(b1-4)GlcNAc(b1-4)GlcNAc
# In short: as §1
# [21] = target: GlcNAc(b1-4)GlcNAc(b1-4)GlcNAc(b1-4)GlcNAc(b1-4)GlcNAc
# In short: as §1
# [22] = target: GlcNAc(b1-4)GlcNAc(b1-4)GlcNAc(b1-4)GlcNAc(b1-4)GlcNAc(b1-4)GlcNAc
# In short: as §1
# [23] = target: GlcNAc(b1-4)[GlcNAc(b1-6)]GalNAc
# In short: as §1
# [24] = target: GlcNAc(b1-6)Gal(b1-4)GlcNAc
# In short: as §1
# GlcNAc(b1-6)GalNAc = target: GlcNAc(b1-6)GalNAc
# In short: as §1
# [25] = target: GlcNAc6S(b1-3)Gal(b1-4)GlcNAc
# In short: as §1
# Kdn(a2-3)Gal(b1-3)GalNAc = target: Kdn(a2-3)Gal(b1-3)GalNAc
# In short: as §1
# Kdn(a2-3)Gal(b1-3)GlcNAc = target: Kdn(a2-3)Gal(b1-3)GlcNAc
# In short: as §1
# Kdn(a2-3)Gal(b1-4)Glc = target: Kdn(a2-3)Gal(b1-4)Glc
# In short: as §1
# Kdn(a2-3)Gal(b1-4)GlcNAc = target: Kdn(a2-3)Gal(b1-4)GlcNAc
# In short: as §1
# [26] = target: Kdn(a2-3)Gal(b1-4)[Fuc(a1-3)]GlcNAc
# In short: as §1
# Kdn(a2-6)Gal(b1-4)GlcNAc = target: Kdn(a2-6)Gal(b1-4)GlcNAc
# In short: as §1
# [27] = target: Man(a1-2)Man(a1-2)Man(a1-3)Man
# In short: as §1
# [28] = target: Man(a1-2)Man(a1-2)Man(a1-6)[Man(a1-3)]Man
# In short: as §1
# Man(a1-2)Man(a1-3)Man = target: Man(a1-2)Man(a1-3)Man
# In short: as §1
binder,measurement,setting,value
B1,glycan array binding signal (z-score),[1],2.59
same,glycan array binding signal (z-score),[2],1.65
same,glycan array binding signal (z-score),[3],0.425
same,glycan array binding signal (z-score),[4],0.491
same,glycan array binding signal (z-score),[5],0.299
same,glycan array binding signal (z-score),[6],0.217
same,glycan array binding signal (z-score),[7],1.09
same,glycan array binding signal (z-score),[8],-0.37
same,glycan array binding signal (z-score),[9],0.312
same,glycan array binding signal (z-score),[10],0.037
same,glycan array binding signal (z-score),[11],-0.557
same,glycan array binding signal (z-score),[12],-0.645
same,glycan array binding signal (z-score),[13],-0.217
same,glycan array binding signal (z-score),[14],-0.111
same,glycan array binding signal (z-score),[15],-0.727
same,glycan array binding signal (z-score),GlcNAc(b1-3)GalNAc,-0.788
same,glycan array binding signal (z-score),GlcNAc(b1-3)Man,0.009
same,glycan array binding signal (z-score),[16],-0.538
same,glycan array binding signal (z-score),[17],-0.423
same,glycan array binding signal (z-score),[18],-0.047
same,glycan array binding signal (z-score),[19],-0.868
same,glycan array binding signal (z-score),GlcNAc(b1-4)GlcNAc,-0.611
same,glycan array binding signal (z-score),[20],-0.004
same,glycan array binding signal (z-score),[21],-0.063
same,glycan array binding signal (z-score),[22],-1.09
same,glycan array binding signal (z-score),[23],-0.221
same,glycan array binding signal (z-score),[24],-0.467
same,glycan array binding signal (z-score),GlcNAc(b1-6)GalNAc,0.278
same,glycan array binding signal (z-score),[25],1.83
same,glycan array binding signal (z-score),Kdn(a2-3)Gal(b1-3)GalNAc,-1.24
same,glycan array binding signal (z-score),Kdn(a2-3)Gal(b1-3)GlcNAc,-0.837
same,glycan array binding signal (z-score),Kdn(a2-3)Gal(b1-4)Glc,-1.28
same,glycan array binding signal (z-score),Kdn(a2-3)Gal(b1-4)GlcNAc,-0.437
same,glycan array binding signal (z-score),[26],0.029
same,glycan array binding signal (z-score),Kdn(a2-6)Gal(b1-4)GlcNAc,-0.047
same,glycan array binding signal (z-score),[27],1.44
same,glycan array binding signal (z-score),[28],-0.515
same,glycan array binding signal (z-score),Man(a1-2)Man(a1-3)Man,-0.706

# An excerpt taken from the entries so far, as a working copy:
binder,measurement,setting,value
B1,glycan array binding signal (z-score),[21],-0.063
same,glycan array binding signal (z-score),[22],-1.09
